According to publication PMC5833403:
Results are given in words; binding and its absence hold for the method and conditions named. In cells and extracts the contact can be indirect. Some binding calls cover weakened binding; strength is not graded here. Each block holds one molecule with its values, some of them ahead of it.

Protein sequences, listed by entry. Tags and fused reporters are not part of them.
UniProt P26361: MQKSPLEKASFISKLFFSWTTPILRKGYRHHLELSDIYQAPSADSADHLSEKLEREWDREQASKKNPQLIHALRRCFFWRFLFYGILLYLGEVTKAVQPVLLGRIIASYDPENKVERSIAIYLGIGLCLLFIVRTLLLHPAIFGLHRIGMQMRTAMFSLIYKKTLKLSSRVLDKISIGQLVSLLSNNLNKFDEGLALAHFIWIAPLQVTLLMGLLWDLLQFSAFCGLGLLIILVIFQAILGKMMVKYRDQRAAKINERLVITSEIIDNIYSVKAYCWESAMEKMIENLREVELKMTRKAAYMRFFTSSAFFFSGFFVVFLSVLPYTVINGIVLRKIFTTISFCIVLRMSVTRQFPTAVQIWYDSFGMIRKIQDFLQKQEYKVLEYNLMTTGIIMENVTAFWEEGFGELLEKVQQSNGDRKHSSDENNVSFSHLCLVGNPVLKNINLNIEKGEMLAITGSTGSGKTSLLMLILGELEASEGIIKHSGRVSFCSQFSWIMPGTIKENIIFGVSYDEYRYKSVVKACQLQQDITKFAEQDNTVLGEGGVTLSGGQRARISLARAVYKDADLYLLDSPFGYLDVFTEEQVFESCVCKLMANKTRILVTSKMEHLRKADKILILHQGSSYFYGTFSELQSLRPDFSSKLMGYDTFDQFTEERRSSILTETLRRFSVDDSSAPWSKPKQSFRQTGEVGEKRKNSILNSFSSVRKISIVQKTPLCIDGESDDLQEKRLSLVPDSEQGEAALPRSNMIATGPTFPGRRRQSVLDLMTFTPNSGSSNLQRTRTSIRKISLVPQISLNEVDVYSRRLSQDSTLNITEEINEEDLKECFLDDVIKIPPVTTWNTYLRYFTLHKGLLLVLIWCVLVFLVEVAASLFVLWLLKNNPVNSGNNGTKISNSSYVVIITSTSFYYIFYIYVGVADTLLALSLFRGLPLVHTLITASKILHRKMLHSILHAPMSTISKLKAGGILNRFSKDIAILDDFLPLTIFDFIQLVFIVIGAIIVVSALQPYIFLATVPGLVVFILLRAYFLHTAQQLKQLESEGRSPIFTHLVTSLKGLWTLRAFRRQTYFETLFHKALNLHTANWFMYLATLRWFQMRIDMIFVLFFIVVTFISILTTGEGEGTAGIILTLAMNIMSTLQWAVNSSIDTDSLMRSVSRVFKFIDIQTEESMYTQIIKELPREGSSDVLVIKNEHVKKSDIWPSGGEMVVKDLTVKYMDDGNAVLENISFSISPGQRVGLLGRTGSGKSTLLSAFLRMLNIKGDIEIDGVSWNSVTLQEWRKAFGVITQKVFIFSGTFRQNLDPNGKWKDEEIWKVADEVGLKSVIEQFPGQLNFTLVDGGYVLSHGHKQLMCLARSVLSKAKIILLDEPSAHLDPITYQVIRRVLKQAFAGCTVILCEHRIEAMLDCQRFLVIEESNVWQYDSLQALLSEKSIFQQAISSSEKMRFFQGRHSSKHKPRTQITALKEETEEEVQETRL

How the values were obtained:
[1] = target: T1, Dvl2, endogenous in mouse bone marrow (mouse (endogenous in bone marrow)) (UniProt Q60838); experiment: co-IP; endogenous proteins in mouse bone marrow, reciprocal
T1 sequence: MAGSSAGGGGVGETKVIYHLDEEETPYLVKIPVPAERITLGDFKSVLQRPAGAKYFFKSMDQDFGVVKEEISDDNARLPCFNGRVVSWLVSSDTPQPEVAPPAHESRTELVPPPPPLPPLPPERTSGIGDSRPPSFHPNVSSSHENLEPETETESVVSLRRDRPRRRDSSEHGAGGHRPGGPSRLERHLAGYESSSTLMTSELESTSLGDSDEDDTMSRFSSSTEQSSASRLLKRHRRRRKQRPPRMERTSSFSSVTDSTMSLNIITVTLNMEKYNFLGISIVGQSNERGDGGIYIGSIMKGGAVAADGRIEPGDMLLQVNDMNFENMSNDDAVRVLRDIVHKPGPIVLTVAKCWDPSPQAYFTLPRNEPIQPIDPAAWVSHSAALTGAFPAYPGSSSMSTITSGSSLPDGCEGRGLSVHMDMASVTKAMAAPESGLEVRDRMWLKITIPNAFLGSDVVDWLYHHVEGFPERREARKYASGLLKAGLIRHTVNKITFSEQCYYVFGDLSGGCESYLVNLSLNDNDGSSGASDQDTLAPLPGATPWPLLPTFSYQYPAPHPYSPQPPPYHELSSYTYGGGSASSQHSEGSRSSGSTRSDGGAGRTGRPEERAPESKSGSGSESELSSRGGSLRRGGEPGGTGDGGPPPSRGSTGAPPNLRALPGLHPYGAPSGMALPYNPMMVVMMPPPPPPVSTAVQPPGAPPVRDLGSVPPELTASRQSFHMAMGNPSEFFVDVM

[2] = target: T2, Dishevelled 2 (Dvl2), endogenous in zebrafish embryos (zebrafish (endogenous in embryos)) (UniProt Q803Q5); experiment: co-IP; endogenous proteins in zebrafish embryos (Cftr-Dvl2: reciprocal, 5 hpf; Dvl2-Dpr1: wild type and cftr mutant embryos)
T2 sequence: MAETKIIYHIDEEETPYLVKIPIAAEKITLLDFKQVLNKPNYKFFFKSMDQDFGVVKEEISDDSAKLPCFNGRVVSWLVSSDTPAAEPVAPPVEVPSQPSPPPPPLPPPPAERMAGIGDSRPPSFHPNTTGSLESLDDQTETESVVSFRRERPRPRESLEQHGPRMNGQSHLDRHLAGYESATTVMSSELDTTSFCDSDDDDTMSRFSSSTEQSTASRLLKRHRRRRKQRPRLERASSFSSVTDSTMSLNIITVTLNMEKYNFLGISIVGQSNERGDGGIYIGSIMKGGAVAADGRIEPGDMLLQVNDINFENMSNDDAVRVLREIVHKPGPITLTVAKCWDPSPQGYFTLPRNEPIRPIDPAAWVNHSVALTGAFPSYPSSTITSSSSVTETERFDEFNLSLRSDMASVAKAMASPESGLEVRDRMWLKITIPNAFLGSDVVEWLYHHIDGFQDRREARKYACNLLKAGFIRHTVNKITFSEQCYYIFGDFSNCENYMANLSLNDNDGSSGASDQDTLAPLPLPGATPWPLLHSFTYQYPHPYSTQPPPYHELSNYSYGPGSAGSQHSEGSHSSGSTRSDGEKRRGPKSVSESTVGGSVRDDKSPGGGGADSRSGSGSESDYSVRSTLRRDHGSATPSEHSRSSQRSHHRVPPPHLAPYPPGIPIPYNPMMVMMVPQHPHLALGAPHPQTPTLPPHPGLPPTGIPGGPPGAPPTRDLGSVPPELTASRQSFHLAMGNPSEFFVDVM

- binding [1]: binds
Molecule: Cftr, endogenous in mouse bone marrow (from UniProt P26361 1-1476)

- binding [2]: binds
B1: Dapper1 (Dpr1), endogenous in zebrafish embryos (protein, UniProt Q6QZN6 1-821)
chain: MNEWSEMLVCRDYCALMMRDRKECDARCCRDGEGERVRARERLDATVAGLTELEYLRQRQELLVRSVLSCPEAAGQDKPCLTVDDSYLNTEEKLLEENILLLRKQLNCLRRRDAGLINQLQELDRQISDLRLDTETSHEHVETDSRPSSGFYDLSDGASGSLSNSSNSVFSECLSSCRSTTCLCTPLDTSLCASEGRLKPADDPGSCAECDCHCEDSSSGTVRRSLSASYSPSPDSSCDGISKFHCDLIAKNGNDVYRYPSPLHAVAVQSPIFIQSMTSHLKDDCNFSKPGEALNDEQKPEQVVGSQTSSWHASQMLPNKKLDSYIYGLLQRRAQPLRTNKPRTSINTDPSKSILRQASLCSRAPASVQAQQWTSDLKPNWQTCLQDASATSTEPSTASPQRQWSAESKGGTPQNGAYLSSSQPQNSYSTTNENTNCLLKKKVSGTSKGQLLSATPKDCPDLGSPKAVSSPKLNKHCFYNVEDNKTGQAMKASPLKRSPKTQTSLSCGKDSEQLAQELVSLGSSSQSQDEGGPLVSAQYIPAQKQNVNLQKGGTKNIKIVKVKNSASSKSRPQVFEHVSETVRDKHRTGSRRTRQVDEVHHLHKSSKKASAKTKRIPASIPEGRILERHTSSSGARSSAQRHHGHHRHHEAVLAKPKYKRNDFHRRPRGLHEIPYEEAYRRAHRRQKREMLSHMYLPSNAHYTSPYAYVGSDSEYSAECASLFHSTILDTSEDERSNYTTNCFGDSESSASEADYVAESSTSSDSEGSAGVNWRQISQAGSGSHGMTSAQAKAFVKIKASHNLKKKILRFRSGSLKLMTTV
